In the supplement of paper PMC8728848:
Some of the results follow.

Assays:
Experiment in all cases: glycan array binding signal (z-score within array); higher = stronger binding
Details in all cases: glycan notation: IUPAC condensed, linker removed
[1] = biological target: GlcNAc(b1-3)Gal(b1-4)GlcNAc(b1-3)Gal(b1-4)GlcNAc
How it was run: (§1)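 Glycan array data came from 3228 arrays in the Consortium for Functional Glycomics database, and only arrays with an available protein sequence were kept. Glycan names were put into IUPAC-condensed notation, and columns mapping to the same glycan were averaged. The binding signal is a within-array Z-score, averaged across arrays of one protein sequence run at different concentrations or buffers and across linkers. A negative Z-score can be read as non-binding.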

GlcNAc(b1-3)GalNAc = biological target: GlcNAc(b1-3)GalNAc
How it was run: as §1

GlcNAc(b1-3)Man = biological target: GlcNAc(b1-3)Man
How it was run: as §1

[2] = biological target: GlcNAc(b1-3)[GlcNAc(b1-4)][GlcNAc(b1-6)]GlcNAc
How it was run: as §1

[3] = biological target: GlcNAc(b1-3)[GlcNAc(b1-6)]Gal(b1-4)GlcNAc
How it was run: as §1

[4] = biological target: GlcNAc(b1-3)[GlcNAc(b1-6)]GalNAc
How it was run: as §1

[5] = biological target: GlcNAc(b1-4)Gal(b1-4)GlcNAc
How it was run: as §1

GlcNAc(b1-4)GlcNAc = biological target: GlcNAc(b1-4)GlcNAc
How it was run: as §1

[6] = biological target: GlcNAc(b1-4)GlcNAc(b1-4)GlcNAc
How it was run: as §1

[7] = biological target: GlcNAc(b1-4)GlcNAc(b1-4)GlcNAc(b1-4)GlcNAc(b1-4)GlcNAc
How it was run: as §1

[8] = biological target: GlcNAc(b1-4)GlcNAc(b1-4)GlcNAc(b1-4)GlcNAc(b1-4)GlcNAc(b1-4)GlcNAc
How it was run: as §1

[9] = biological target: GlcNAc(b1-4)[GlcNAc(b1-6)]GalNAc
How it was run: as §1

[10] = biological target: GlcNAc(b1-6)Gal(b1-4)GlcNAc
How it was run: as §1

GlcNAc(b1-6)GalNAc = biological target: GlcNAc(b1-6)GalNAc
How it was run: as §1

GlcNAc3Prop(b1-4)GlcNAc = biological target: GlcNAc3Prop(b1-4)GlcNAc
How it was run: as §1

[11] = biological target: GlcNAc6S(b1-3)Gal(b1-4)GlcNAc
How it was run: as §1

Kdn(a2-3)Gal(b1-3)GalNAc = biological target: Kdn(a2-3)Gal(b1-3)GalNAc
How it was run: as §1

Kdn(a2-3)Gal(b1-3)GlcNAc = biological target: Kdn(a2-3)Gal(b1-3)GlcNAc
How it was run: as §1

Kdn(a2-3)Gal(b1-4)Glc = biological target: Kdn(a2-3)Gal(b1-4)Glc
How it was run: as §1

Kdn(a2-3)Gal(b1-4)GlcNAc = biological target: Kdn(a2-3)Gal(b1-4)GlcNAc
How it was run: as §1

[12] = biological target: Kdn(a2-3)Gal(b1-4)[Fuc(a1-3)]GlcNAc
How it was run: as §1

Kdn(a2-6)Gal(b1-4)GlcNAc = biological target: Kdn(a2-6)Gal(b1-4)GlcNAc
How it was run: as §1

[13] = biological target: Man(a1-2)Man(a1-2)Man(a1-3)Man
How it was run: as §1

[14] = biological target: Man(a1-2)Man(a1-2)Man(a1-6)[Man(a1-3)]Man
How it was run: as §1

Man(a1-2)Man(a1-3)Man = biological target: Man(a1-2)Man(a1-3)Man
How it was run: as §1

[15] = biological target: Man(a1-2)Man(a1-3)[Man(a1-2)Man(a1-6)]Man
How it was run: as §1

[16] = biological target: Man(a1-2)Man(a1-3)[Man(a1-2)Man(a1-6)]Man(a1-6)[Man(a1-2)Man(a1-2)Man(a1-3)]Man
How it was run: as §1

[17] = biological target: Man(a1-2)Man(a1-3)[Man(a1-2)Man(a1-6)]Man(a1-6)[Man(a1-2)Man(a1-2)Man(a1-3)]Man(b1-4)GlcNAc(b1-4)GlcNAc
How it was run: as §1

[18] = biological target: Man(a1-2)Man(a1-3)[Man(a1-6)]Man(a1-6)[Man(a1-2)Man(a1-3)]Man(b1-4)GlcNAc(b1-4)GlcNAc
How it was run: as §1

[19] = biological target: Man(a1-2)Man(a1-6)[Man(a1-3)]Man(a1-6)[Man(a1-2)Man(a1-2)Man(a1-3)]Man
How it was run: as §1

[20] = biological target: Man(a1-2)Man(a1-6)[Man(a1-3)]Man(a1-6)[Man(a1-2)Man(a1-2)Man(a1-3)]Man(b1-4)GlcNAc(b1-4)GlcNAc
How it was run: as §1

Man(a1-3)[Man(a1-6)]Man = biological target: Man(a1-3)[Man(a1-6)]Man
How it was run: as §1

[21] = biological target: Man(a1-3)[Man(a1-6)]Man(a1-6)[Man(a1-2)Man(a1-3)]Man(b1-4)GlcNAc(b1-4)GlcNAc
How it was run: as §1

[22] = biological target: Man(a1-3)[Man(a1-6)]Man(a1-6)[Man(a1-3)]Man
How it was run: as §1

[23] = biological target: Man(a1-3)[Man(a1-6)]Man(a1-6)[Man(a1-3)]Man(b1-4)GlcNAc(b1-4)GlcNAc
How it was run: as §1

[24] = biological target: Man(a1-3)[Man(a1-6)]Man(b1-4)GlcNAc(b1-4)GlcNAc
How it was run: as §1

Man(a1-6)Man = biological target: Man(a1-6)Man
How it was run: as §1

B1: SAG1 (Toxoplasma gondii), P13664 (protein)
chain: MSVSLHHFIISSGFLTSMFPKAVRRAVTAGVFAAPTLMSFLRCGVMASDPPLVANQVVTCPDKKSTAAVILTPTENHFTLKCPKTALTEPPTLAYSPNRQICPAGTTSSCTSKAVTLSSLIPEAEDSWWTGDSASLDTAGIKLTVPIEKFPVTTQTFVVGCIKGDDAQSCMVTVTVQARASSVVNNVARCSYGADSTLGPVKLSAEGPTTMTLVCGKDGVKVPQDNNQYCSGTTLTGCNEKSFKDILPKLTENPWQGNASSDKGATLTIKKEAFPAESKSVIIGCTGGSPEKHHCTVKLEFAGAAGSAKSAAGTASHVSIFAMVIGLIGSIAACVA
In the case of B1, the “glycan array binding signal (z-score)” value [1] is reported as -0.287, the “glycan array binding signal (z-score)” value (GlcNAc(b1-3)GalNAc) is reported as -0.232 and the “glycan array binding signal (z-score)” value (GlcNAc(b1-3)Man) is reported as -0.457. For the same binder, the “glycan array binding signal (z-score)” value [2] was -0.444, the “glycan array binding signal (z-score)” value [3] was -0.701 and the “glycan array binding signal (z-score)” value [4] was -0.405. The “glycan array binding signal (z-score)” value [5] was -1.12, the “glycan array binding signal (z-score)” value (GlcNAc(b1-4)GlcNAc) was -0.717 and the “glycan array binding signal (z-score)” value [6] was -0.764. For the same binder, the “glycan array binding signal (z-score)” value [7] was -0.745, the “glycan array binding signal (z-score)” value [8] was -0.674 and the “glycan array binding signal (z-score)” value [9] was 0.017. The “glycan array binding signal (z-score)” value [10] was -1.12, the “glycan array binding signal (z-score)” value (GlcNAc(b1-6)GalNAc) was -0.384 and the “glycan array binding signal (z-score)” value (GlcNAc3Prop(b1-4)GlcNAc) was -0.588. The “glycan array binding signal (z-score)” value [11] was -0.139, the “glycan array binding signal (z-score)” value (Kdn(a2-3)Gal(b1-3)GalNAc) was 0.938 and the “glycan array binding signal (z-score)” value (Kdn(a2-3)Gal(b1-3)GlcNAc) was -0.737. For the same binder, the “glycan array binding signal (z-score)” value (Kdn(a2-3)Gal(b1-4)Glc) was 0.393, the “glycan array binding signal (z-score)” value (Kdn(a2-3)Gal(b1-4)GlcNAc) was -0.051 and the “glycan array binding signal (z-score)” value [12] was -0.429. The “glycan array binding signal (z-score)” value (Kdn(a2-6)Gal(b1-4)GlcNAc) was 0.139, the “glycan array binding signal (z-score)” value [13] was -0.604 and the “glycan array binding signal (z-score)” value [14] was 0.319. For the same binder, the “glycan array binding signal (z-score)” value (Man(a1-2)Man(a1-3)Man) was -0.315, the “glycan array binding signal (z-score)” value [15] was 0.125 and the “glycan array binding signal (z-score)” value [16] was -0.757. For the same binder, the “glycan array binding signal (z-score)” value [17] was 0.212, the “glycan array binding signal (z-score)” value [18] was -0.334 and the “glycan array binding signal (z-score)” value [19] was -0.527. The “glycan array binding signal (z-score)” value [20] was -0.129, the “glycan array binding signal (z-score)” value (Man(a1-3)[Man(a1-6)]Man) was -0.088 and the “glycan array binding signal (z-score)” value [21] was 0.422. For the same binder, the “glycan array binding signal (z-score)” value [22] was -0.442, the “glycan array binding signal (z-score)” value [23] was 0.667 and the “glycan array binding signal (z-score)” value [24] was -0.356. For the same binder, the “glycan array binding signal (z-score)” value (Man(a1-6)Man) was -0.539.
